Laboratory results reported in article PMC10091876.
No constants are given. Whether binding was seen depends on the method and setting. Binding seen in cells or lysates may run through a third protein. Some binding calls cover weakened binding; strength is not graded here. Sequences can lack the tags named with a protein.

Biological target: T1, HA-tagged Calhm2 (UniProt Q8VEC4)
T1 sequence: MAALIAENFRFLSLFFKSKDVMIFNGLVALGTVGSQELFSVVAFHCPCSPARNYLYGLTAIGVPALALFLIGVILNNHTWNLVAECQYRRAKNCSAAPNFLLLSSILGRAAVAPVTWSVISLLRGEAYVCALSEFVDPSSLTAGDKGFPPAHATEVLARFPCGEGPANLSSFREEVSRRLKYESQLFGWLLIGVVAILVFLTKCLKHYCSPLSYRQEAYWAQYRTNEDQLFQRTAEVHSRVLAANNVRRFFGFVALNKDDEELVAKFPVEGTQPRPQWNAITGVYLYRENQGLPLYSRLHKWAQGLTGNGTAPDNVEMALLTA
Assay: co-IP; Myc-EFhd2 and HA-Calhm2 plasmids co-transfected in HEK293T cells, with or without LPS stimulation for 6 h; immunoprecipitation of HA, immunoblotting for Myc and HA

B1: Myc-tagged EFhd2 (protein, UniProt Q9D8Y0 1-240)
chain: MATDELASKLSRRLQMEGEGGEATEQPGLNGAAAAAAAEAPDETAQALGSADDELSAKLLRRADLNQGIGEPQSPSRRVFNPYTEFKEFSRKQIKDMEKMFKQYDAGRDGFIDLMELKLMMEKLGAPQTHLGLKSMIQEVDEDFDSKLSFREFLLIFRKAAAGELQEDSGLQVLARLSEIDVSTEGVKGAKNFFEAKVQAINVSSRFEEEIKAEQEERKKQAEEVKQRKAAFKELQSTFK
Q: How did the binding turn out when B1 was run?
A: binds
